According to PMC2291454:
No constants are given. Whether binding was seen depends on the method and setting. In cells and extracts the contact can be indirect. Some results given as binding are weak or reduced against the parent protein; the word gives no strength.

Protein sequences, listed by entry. Tags and fused reporters are not part of them. Lines headed by an entry give the natural chain unless they say otherwise; changes in a name come on top. Chains listed by the source or under a name are the forms on record and can include a tag or linker.
UniProt Q92574: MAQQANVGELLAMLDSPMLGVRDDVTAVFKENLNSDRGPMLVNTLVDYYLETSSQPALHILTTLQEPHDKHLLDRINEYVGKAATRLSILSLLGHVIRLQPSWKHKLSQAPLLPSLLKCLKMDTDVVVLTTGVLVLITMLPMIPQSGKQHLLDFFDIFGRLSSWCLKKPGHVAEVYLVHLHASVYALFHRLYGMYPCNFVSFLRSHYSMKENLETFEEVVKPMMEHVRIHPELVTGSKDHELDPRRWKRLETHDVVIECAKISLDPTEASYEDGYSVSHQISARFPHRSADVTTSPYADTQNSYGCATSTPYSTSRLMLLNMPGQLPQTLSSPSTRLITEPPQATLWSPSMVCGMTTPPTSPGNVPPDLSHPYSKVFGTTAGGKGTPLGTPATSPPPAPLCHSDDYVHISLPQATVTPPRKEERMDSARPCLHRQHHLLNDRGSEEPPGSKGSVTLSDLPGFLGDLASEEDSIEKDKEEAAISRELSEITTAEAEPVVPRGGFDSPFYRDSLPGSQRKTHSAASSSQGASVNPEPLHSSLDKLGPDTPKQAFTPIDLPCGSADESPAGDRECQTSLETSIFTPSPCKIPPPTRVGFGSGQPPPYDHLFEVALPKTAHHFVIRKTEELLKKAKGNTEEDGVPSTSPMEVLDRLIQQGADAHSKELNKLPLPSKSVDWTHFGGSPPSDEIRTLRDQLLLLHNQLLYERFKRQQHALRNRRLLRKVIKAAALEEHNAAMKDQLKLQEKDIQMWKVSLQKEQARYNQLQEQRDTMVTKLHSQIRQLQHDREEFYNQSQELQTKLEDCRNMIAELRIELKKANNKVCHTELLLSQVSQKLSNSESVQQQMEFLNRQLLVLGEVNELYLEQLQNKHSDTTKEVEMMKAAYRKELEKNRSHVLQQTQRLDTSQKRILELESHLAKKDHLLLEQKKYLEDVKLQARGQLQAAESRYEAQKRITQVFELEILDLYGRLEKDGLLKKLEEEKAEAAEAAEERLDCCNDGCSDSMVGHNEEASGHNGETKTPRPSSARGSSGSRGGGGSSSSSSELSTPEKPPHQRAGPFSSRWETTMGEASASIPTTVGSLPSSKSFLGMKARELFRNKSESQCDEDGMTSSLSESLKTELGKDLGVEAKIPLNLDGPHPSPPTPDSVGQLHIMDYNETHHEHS
TSC2 I820del variant (P49815-4, form named): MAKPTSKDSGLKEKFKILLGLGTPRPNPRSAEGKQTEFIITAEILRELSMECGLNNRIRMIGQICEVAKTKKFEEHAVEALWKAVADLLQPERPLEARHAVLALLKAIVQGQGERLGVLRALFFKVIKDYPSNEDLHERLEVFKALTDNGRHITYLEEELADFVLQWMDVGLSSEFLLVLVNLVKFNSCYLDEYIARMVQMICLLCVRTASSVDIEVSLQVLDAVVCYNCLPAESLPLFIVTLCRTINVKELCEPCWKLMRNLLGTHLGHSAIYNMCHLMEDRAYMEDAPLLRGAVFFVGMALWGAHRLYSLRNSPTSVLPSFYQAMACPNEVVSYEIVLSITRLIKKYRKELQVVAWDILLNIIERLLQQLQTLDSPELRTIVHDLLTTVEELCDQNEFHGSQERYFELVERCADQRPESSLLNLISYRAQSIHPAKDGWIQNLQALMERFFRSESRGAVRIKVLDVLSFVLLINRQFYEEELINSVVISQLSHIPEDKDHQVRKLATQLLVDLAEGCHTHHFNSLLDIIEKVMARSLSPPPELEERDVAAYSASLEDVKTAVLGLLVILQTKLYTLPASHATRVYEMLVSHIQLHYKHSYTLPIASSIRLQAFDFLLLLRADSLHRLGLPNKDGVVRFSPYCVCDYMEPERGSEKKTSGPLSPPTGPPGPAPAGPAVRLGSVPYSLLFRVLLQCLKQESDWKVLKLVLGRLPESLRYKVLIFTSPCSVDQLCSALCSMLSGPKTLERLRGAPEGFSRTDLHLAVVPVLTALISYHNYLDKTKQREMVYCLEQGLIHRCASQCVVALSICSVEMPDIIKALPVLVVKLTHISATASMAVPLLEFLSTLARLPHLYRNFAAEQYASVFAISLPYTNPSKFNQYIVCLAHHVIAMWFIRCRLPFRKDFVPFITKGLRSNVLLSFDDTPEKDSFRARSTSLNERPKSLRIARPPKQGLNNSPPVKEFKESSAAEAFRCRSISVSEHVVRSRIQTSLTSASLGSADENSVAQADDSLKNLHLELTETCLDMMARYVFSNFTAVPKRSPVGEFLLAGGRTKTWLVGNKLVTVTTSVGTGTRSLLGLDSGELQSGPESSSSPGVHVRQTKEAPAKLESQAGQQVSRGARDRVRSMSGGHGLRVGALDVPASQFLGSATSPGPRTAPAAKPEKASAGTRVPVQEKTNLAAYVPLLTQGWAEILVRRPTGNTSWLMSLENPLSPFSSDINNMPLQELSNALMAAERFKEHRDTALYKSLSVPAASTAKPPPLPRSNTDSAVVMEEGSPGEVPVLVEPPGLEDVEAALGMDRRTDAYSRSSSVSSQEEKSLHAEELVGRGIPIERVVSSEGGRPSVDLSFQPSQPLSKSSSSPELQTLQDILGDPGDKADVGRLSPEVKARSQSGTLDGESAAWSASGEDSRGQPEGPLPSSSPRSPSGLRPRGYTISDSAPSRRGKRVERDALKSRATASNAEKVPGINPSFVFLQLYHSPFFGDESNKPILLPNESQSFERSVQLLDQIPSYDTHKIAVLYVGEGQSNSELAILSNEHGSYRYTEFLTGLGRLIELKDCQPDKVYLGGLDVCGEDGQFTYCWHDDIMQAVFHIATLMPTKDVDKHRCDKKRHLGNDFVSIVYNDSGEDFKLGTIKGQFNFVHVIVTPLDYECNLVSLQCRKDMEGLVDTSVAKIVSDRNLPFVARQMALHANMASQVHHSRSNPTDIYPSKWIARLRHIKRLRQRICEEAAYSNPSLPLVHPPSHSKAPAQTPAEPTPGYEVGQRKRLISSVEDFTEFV
TSC2 L1511H variant (P49815-4, form named): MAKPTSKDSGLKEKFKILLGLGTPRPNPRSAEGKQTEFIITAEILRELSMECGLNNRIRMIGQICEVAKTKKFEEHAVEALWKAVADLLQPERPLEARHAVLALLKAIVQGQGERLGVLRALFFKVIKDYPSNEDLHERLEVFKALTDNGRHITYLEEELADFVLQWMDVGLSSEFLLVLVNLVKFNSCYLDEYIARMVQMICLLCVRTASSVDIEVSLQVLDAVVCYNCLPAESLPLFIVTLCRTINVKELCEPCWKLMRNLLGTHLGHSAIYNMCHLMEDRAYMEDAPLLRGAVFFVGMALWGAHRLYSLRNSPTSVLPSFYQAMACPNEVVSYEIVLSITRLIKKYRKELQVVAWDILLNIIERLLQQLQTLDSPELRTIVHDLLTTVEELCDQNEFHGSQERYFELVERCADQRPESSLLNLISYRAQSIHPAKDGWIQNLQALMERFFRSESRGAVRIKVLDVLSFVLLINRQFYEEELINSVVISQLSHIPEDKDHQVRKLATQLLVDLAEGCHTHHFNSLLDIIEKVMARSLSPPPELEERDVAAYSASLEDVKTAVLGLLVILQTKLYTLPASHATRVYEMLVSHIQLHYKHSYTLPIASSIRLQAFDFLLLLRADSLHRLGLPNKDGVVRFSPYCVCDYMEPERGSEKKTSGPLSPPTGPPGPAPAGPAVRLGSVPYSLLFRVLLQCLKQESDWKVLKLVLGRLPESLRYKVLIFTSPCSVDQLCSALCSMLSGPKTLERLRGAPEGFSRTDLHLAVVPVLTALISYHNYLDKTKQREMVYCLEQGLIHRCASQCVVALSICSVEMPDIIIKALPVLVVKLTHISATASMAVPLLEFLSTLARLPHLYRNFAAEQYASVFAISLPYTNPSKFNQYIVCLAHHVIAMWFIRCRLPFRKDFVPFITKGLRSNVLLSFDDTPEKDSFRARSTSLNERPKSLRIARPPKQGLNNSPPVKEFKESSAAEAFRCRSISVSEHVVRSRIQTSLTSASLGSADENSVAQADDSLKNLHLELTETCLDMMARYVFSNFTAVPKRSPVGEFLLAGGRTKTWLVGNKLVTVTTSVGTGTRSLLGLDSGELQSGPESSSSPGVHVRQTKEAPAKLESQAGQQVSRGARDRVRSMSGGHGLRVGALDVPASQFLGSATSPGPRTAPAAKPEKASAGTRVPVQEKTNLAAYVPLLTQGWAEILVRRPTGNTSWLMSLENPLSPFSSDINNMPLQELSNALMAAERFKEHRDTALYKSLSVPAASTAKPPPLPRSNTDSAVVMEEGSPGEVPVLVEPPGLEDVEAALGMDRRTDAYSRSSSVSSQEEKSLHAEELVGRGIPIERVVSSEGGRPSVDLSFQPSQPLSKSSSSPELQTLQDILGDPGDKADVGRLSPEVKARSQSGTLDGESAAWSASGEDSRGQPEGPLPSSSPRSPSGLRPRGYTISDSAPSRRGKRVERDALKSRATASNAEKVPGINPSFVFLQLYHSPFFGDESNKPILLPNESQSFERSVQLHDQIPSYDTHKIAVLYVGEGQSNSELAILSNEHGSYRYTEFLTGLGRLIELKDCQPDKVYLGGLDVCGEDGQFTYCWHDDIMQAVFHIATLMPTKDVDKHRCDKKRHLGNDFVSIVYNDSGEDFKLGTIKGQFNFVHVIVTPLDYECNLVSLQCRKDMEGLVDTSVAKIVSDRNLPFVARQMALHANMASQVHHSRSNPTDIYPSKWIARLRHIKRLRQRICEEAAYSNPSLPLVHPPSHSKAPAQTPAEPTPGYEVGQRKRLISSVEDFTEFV
TSC2 R1772C variant (P49815-4, form named): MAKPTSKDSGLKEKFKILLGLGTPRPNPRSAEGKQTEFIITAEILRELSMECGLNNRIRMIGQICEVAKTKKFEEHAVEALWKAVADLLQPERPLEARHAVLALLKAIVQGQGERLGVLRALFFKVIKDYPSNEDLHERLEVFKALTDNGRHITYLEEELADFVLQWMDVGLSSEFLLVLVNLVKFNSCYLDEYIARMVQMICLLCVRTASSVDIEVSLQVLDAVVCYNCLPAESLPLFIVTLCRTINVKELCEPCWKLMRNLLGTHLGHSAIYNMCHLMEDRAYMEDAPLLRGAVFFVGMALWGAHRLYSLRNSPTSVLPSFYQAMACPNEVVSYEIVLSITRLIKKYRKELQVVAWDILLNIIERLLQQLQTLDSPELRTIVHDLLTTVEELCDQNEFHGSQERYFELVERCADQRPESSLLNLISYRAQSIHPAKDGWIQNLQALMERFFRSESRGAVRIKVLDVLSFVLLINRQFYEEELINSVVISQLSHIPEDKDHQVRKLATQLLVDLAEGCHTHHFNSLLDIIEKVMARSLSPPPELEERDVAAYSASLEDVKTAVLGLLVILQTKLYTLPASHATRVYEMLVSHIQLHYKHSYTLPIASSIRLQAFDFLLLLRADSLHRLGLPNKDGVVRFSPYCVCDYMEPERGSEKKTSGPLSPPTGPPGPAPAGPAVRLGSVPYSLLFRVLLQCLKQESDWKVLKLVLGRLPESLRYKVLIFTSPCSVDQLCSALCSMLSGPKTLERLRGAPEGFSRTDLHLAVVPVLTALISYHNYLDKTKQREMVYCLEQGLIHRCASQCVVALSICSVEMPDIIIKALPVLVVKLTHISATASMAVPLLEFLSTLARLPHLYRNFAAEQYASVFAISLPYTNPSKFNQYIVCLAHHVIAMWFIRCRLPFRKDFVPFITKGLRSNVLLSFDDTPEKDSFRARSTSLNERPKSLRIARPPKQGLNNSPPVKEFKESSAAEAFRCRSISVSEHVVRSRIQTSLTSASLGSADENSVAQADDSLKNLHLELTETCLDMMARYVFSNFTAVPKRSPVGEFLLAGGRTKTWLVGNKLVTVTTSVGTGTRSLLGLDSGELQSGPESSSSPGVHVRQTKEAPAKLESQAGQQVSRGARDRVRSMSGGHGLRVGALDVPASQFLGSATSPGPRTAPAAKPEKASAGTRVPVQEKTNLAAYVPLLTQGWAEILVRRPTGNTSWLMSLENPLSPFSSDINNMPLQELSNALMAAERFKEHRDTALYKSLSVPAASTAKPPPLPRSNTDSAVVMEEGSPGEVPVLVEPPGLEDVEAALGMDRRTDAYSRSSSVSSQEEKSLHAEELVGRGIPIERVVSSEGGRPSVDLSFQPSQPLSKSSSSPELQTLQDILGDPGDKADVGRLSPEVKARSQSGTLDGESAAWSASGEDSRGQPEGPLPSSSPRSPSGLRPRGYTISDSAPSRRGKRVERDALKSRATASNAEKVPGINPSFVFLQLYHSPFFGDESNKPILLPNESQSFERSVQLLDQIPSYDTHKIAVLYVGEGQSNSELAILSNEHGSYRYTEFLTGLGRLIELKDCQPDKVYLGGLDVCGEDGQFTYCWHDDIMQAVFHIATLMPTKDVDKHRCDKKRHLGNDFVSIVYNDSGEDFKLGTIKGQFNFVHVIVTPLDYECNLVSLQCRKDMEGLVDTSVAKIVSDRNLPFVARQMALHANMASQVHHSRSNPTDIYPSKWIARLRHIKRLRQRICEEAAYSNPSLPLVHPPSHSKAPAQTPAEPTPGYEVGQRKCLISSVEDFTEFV

Target: TSC1 (human) (UniProt Q92574)
Assay: co-IP; immunoprecipitation with antibodies specific for exogenous TSC1 from HEK 293 cells over-expressing TSC1 and wild-type TSC2 or a TSC2 variant; TSC2 detected by immunoblotting, TSC2:TSC1 ratio by densitometry

Substance	binding
TSC2 I820del variant (from UniProt P49815-4 1-1784)	binds
TSC2 L1511H variant (from UniProt P49815-4 1-1784)	binds
TSC2 R1772C variant (from UniProt P49815-4 1-1784)	binds
TSC2 T993M variant (from UniProt P49815-4 1-1784)	binds
wild-type TSC2 (from UniProt P49815-4 1-1784)	binds
